Experimental data taken from PMC6765112, “Specificity of MYB interactions relies on motifs in ordered and disordered contexts” (Nucleic Acids Research, 2019).
Results are given in words; binding and its absence hold for the method and conditions named. In cells and extracts the contact can be indirect. For part of these data: Binding calls can cover weak binding; strength is not graded here.

Sequences of proteins named here, by UniProt entry; tags and fusion partners are left off. A change or cut given only in a name is not applied to a line headed by its entry.
UniProt Q9FIP9: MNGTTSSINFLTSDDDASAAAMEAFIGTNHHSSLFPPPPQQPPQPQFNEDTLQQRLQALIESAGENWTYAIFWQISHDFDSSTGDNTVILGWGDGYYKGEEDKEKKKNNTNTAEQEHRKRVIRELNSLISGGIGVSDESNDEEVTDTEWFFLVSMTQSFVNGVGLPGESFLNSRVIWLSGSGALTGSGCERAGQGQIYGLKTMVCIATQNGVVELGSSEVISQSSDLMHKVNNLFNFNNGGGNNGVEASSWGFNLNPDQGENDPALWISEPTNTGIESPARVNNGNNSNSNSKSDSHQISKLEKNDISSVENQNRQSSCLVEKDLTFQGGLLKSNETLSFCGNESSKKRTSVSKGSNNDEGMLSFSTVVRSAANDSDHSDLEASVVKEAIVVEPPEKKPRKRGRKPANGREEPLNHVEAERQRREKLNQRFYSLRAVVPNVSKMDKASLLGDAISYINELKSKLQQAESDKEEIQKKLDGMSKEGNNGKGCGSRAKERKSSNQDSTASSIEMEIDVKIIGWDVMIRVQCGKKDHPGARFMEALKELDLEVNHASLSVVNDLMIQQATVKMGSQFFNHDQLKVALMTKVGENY
UniProt O49687: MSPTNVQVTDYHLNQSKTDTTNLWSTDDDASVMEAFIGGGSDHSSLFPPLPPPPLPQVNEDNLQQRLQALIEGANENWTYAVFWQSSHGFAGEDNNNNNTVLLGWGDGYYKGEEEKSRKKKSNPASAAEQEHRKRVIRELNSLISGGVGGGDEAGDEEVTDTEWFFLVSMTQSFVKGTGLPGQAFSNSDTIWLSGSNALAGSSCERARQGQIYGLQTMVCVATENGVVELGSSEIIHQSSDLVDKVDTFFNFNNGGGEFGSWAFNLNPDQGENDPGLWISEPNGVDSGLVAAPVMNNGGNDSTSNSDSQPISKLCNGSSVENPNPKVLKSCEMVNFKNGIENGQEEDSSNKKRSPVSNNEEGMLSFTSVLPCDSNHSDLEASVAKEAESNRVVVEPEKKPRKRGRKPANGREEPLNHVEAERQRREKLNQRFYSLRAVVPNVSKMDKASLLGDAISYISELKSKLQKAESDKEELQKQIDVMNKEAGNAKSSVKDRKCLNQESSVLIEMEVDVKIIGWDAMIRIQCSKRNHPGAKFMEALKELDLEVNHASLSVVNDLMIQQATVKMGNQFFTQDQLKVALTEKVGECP
UniProt Q9M9U2: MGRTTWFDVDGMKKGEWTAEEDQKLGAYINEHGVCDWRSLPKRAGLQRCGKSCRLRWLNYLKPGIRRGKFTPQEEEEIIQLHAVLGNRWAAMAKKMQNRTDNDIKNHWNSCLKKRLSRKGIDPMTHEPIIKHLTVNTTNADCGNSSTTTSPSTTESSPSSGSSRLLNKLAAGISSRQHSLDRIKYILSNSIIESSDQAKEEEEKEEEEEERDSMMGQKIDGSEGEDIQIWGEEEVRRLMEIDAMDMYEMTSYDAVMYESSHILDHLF
UniProt Q9FE25: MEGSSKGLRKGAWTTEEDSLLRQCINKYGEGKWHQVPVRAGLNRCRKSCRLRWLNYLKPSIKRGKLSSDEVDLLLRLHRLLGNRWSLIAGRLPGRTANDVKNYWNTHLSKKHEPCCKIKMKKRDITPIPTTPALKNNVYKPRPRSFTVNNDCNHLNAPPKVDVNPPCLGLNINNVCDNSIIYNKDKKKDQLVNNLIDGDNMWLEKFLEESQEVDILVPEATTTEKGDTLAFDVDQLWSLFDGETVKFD

Columns and labels:
Test in all cases: split-ubiquitin assay; chemically inducible dimerization split-ubiquitin system in yeast NMY51 TOR1-1 Δfpr1; bHLH as bait (pFKBP12), MYB as prey (pFRB); drop tests of three colonies on SD-AHLW, 2 days at 30°C; SD-AHLW+Rapa as positive control
[1] = target: MYC3 (Arabidopsis thaliana) (UniProt Q9FIP9)
[2] = target: MYC4 (Arabidopsis thaliana) (UniProt O49687)
[3] = target: T1, GL3 (Arabidopsis thaliana) (UniProt Q9FN69)
T1 sequence: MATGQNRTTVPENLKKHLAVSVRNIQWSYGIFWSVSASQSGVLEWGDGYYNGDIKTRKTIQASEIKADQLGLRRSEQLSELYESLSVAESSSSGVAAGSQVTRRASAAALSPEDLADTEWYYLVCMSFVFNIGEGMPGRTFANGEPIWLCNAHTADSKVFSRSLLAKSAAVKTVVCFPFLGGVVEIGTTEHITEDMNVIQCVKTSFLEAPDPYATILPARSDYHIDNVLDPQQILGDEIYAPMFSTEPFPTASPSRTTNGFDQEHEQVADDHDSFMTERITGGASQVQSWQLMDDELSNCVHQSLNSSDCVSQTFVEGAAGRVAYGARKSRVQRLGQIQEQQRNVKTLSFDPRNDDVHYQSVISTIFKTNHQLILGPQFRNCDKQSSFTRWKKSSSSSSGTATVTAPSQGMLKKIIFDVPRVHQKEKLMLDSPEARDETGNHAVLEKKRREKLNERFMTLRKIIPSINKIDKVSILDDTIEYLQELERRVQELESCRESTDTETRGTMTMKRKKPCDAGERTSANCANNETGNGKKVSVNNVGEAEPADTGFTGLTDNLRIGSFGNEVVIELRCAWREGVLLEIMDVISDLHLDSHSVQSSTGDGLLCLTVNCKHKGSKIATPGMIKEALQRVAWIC

MYB47 (from UniProt Q9M9U2)
binding [1]: binds
binding [2]: binds

MYB75 with mutated RB motif (from UniProt Q9FE25)
binding [3]: no binding
